Results are given in words; binding and its absence hold for the method and conditions named. In cells and extracts the contact can be indirect.
Target: T1, BEN domain containing 5 (BEND5), endogenous (human (endogenous in MDA-MB-231 and ZR75-1)) (UniProt Q7L4P6)
T1 sequence: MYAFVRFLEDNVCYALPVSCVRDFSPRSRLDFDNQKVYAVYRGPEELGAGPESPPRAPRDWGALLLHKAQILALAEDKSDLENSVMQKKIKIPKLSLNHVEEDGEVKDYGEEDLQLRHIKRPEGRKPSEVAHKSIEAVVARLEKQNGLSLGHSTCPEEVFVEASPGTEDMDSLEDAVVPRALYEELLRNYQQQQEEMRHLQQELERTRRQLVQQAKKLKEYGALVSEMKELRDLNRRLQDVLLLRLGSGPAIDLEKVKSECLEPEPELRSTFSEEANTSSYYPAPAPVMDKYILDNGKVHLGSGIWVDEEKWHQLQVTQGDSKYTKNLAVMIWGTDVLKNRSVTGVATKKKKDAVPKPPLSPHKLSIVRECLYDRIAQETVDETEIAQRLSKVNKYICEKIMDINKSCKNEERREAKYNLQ
Experiment: co-IP; endogenous proteins; MDA-MB-231 or ZR75-1 protein extract immunoprecipitated with anti-BEND5 or normal IgG, immunoblot with the indicated antibodies

Row | Substance | binding
1 | mastermind like transcriptional coactivator (MAML), endogenous | no binding
2 | intracellular domain of Notch (NICD), endogenous (domain or fragment) | no binding

Reference: publication PMC9274485
